Experimental data: article PMC12494293, “Hexokinase 2 is an RNA-binding protein that regulates mRNA translation independently of glycolysis and induces melanoma cell proliferation”

Biological target: T1, HK2 Δ16 del1-16 (UniProt P52789)
T1 sequence (looked up): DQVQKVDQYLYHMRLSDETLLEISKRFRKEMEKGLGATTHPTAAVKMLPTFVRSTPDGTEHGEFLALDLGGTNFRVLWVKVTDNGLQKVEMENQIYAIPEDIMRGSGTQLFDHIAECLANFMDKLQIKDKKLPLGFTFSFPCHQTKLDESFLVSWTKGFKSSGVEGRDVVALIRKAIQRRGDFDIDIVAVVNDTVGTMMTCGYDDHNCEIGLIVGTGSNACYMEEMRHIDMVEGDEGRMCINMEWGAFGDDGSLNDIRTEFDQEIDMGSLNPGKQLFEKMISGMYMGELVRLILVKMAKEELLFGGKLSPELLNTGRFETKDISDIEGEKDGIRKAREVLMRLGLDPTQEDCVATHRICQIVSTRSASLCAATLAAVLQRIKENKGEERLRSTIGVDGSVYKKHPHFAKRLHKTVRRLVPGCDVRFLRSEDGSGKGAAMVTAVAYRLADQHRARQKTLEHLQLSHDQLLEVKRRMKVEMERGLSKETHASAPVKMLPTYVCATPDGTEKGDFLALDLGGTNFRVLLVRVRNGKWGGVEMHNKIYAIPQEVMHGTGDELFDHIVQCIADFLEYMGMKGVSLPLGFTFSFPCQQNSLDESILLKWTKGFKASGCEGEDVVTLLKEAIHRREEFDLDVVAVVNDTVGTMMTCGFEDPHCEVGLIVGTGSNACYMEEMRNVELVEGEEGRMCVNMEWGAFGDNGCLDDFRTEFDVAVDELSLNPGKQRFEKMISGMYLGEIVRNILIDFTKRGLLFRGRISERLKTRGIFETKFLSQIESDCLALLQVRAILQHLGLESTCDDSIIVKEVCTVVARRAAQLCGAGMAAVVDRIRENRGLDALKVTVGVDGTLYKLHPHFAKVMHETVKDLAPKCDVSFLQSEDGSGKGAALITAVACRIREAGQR
Experiment: competition with a labelled probe
Details: 5 µM HK2 Δ16, 25 nM ATTO700 SOX10 SL, needs 500-1000-fold molar excess; 10 mM Tris-HCl pH 7.5, 1 mM EDTA, 100 mM KCl, 0.1 mM DTT, 5% glycerol, 0.01 mg/mL BSA, 0.125 mg/mL yeast tRNA, 20°C; gel at 4°C; recombinant protein; residues 17-917

AGGACGAGCCCCUCUGAGGAGGAGAGGUCC [SOX10 mSL (unlabeled)]
binding result: binds more weakly

The comparison behind a weaker result is the experiment's own reference, which may not be listed here. Tags and fusion partners may be left off the protein sequences shown.
